Laboratory results as given in article PMC5256034.
No constants are given. Whether binding was seen depends on the method and setting. In cells and extracts the contact can be indirect. Some entries that bind do so weakly or less than the wild type. For part of these data: Tags and fused reporters may be left off the sequences shown.

Protein sequences, listed by entry. Tags and fused reporters are not part of them.
UniProt P78396: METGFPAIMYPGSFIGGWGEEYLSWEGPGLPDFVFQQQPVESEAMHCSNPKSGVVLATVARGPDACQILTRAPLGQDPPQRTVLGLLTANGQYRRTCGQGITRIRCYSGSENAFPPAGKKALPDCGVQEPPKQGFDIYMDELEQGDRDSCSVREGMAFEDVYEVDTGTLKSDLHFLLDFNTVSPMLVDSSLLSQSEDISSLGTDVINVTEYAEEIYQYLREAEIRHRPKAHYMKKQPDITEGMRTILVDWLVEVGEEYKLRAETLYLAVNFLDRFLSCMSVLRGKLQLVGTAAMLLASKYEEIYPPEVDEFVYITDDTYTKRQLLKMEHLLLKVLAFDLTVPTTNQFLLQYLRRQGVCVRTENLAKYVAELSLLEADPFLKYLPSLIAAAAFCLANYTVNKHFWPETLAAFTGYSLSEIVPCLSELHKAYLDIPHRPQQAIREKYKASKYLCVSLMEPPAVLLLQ

Key:
Experiment in all cases: co-IP; HEK293 cells transfected with epitope-tagged proteins; lysis in 150 mM NaCl, 50 mM Tris pH 7.5, 1% Triton X-100; immobilized anti-Myc antibody, 4 °C overnight; western blot
[1] = target: T1, Myc-tagged human cyclin I (CCNI) (human) (UniProt Q14094)
T1 sequence: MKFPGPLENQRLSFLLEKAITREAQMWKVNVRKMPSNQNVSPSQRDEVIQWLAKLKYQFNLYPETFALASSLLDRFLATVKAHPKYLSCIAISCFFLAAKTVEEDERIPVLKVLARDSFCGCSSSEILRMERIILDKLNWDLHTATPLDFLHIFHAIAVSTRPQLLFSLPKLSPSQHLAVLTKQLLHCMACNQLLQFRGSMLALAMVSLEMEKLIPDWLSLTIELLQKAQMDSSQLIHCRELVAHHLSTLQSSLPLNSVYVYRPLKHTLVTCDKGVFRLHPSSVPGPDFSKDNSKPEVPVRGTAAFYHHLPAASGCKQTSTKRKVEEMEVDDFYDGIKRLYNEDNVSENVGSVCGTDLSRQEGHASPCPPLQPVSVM

[2] = target: T2, Myc-tagged human cyclin I-like (CCNI2) (human) (UniProt Q6ZMN8)
T2 sequence: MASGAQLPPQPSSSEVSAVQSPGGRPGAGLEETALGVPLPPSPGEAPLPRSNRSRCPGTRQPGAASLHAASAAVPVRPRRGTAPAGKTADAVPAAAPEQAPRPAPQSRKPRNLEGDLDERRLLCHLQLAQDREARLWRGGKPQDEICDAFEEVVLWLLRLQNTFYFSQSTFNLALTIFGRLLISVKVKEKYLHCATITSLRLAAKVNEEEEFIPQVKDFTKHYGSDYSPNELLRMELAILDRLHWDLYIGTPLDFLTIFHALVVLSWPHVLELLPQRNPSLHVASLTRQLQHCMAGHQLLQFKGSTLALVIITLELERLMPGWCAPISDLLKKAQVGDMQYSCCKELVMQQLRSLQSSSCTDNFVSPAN

[3] = target: Myc-tagged human cyclin A1 (CCNA1) (human) (UniProt P78396)

“Flag-tagged human CDK5 (from UniProt Q00535 1-292) (enzyme)” was tested, and the binding [1] was “binds”, the binding [2] was “binds” and the binding [3] was “no binding”.
